Results are given in words; binding and its absence hold for the method and conditions named. In cells and extracts the contact can be indirect. Binding calls can cover weak binding; strength is not graded here. Sequences can lack the tags named with a protein.
Key:
[1] = target: T1, FLAG-tagged Ballchen (BALL) (Drosophila) (UniProt Q7KRY6); assay: co-IP
T1 sequence: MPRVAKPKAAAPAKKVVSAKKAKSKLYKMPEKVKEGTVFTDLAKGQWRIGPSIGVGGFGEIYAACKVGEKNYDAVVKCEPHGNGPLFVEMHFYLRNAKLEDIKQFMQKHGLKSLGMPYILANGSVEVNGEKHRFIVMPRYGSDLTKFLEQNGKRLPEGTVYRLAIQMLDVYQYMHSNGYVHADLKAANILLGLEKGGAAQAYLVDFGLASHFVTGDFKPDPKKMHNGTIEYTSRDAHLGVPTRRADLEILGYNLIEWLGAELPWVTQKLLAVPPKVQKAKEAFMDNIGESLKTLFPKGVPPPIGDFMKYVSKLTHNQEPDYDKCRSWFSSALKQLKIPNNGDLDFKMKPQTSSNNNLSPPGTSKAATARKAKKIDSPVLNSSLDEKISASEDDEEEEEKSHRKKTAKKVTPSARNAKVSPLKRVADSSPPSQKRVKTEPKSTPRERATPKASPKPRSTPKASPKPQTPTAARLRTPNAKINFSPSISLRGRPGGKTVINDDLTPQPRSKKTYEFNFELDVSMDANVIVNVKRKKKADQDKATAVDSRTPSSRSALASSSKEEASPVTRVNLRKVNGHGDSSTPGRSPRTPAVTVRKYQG

[2] = target: CREB binding protein (CBP) (Drosophila (endogenous in S2 cells)); assay: co-IP

CREB binding protein (CBP) (Drosophila (endogenous in S2 cells)) (enzyme)
binding [1]: binds

B1: FLAG-tagged Ballchen (BALL) (enzyme, UniProt Q7KRY6 1-599)
chain: T1 sequence
binding [2]: binds
